PubChem BioAssay AID1159578 – Peter MacCallum Cancer Centre – 2015
Purpose: 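siRNA pools altering how lymphatic endothelial cells close a scratch wound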 (primary screen). Cell system: human lymphatic endothelial cells. Knock-down reagent: siRNA pool against human genes, 40 nM. Duration: 48 h after transfection. Measured: 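High-content imaging of dye-stained cells in a scratch assay measures filled wound area and nuclei per well; duplicate means given as ratio to mock and robust z-score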. Scale: migration robust z-score: higher = faster migration into the scratch; migration relative to mock: higher = more scratch area covered than mock; nuclei per well: higher = more cells in the well. Active means: 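Migration changed when robust z exceeds 2 or falls below -2 and mean nuclei number is at least 3300; otherwise not called changed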. Meaning of the calls: active = migration changed; inactive = no migration change, or too few cells.
This is a random part of about 18,000 reagents tested. Over the whole deposit, about 1,030 (5.7%) got an active call. 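Inactive calls also include pools with fewer than 3300 nuclei, whose migration was not assessed.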 Raw values vary from plate to plate and are shown uncorrected.

target gene | migration robust z-score | migration class with cell-count check | migration relative to mock | nuclei per well, duplicate mean | call
RHOA (ras homolog family member A) | -0.52 | migration z between -2 and 2; enough cells | 0.7 | 5132 | inactive
MOV10 (Mov10 RNA helicase) | -0.36 | migration z between -2 and 2; enough cells | 0.74 | 4004 | inactive
CYP20A1 (cytochrome P450 family 20 subfamily A member 1) | -0.29 | migration z between -2 and 2; enough cells | 0.75 | 5086 | inactive
ZFP41 (ZFP41 zinc finger protein) | 0.2 | migration z between -2 and 2; enough cells | 0.94 | 5516 | inactive
CRHR2 (corticotropin releasing hormone receptor 2) | 0.8 | migration z between -2 and 2; enough cells | 0.96 | 6526 | inactive
MCPH1 (microcephalin 1) | -1.71 | migration z between -2 and 2; enough cells | 0.44 | 5752 | inactive
LCMT2 (leucine carboxyl methyltransferase 2) | 0.21 | migration z between -2 and 2; enough cells | 0.84 | 5422 | inactive
ZSCAN32 (zinc finger and SCAN domain containing 32) | 0.49 | migration z between -2 and 2; enough cells | 1.01 | 4499 | inactive
BDH1 (3-hydroxybutyrate dehydrogenase 1) | 0.18 | migration z between -2 and 2; enough cells | 0.84 | 6578 | inactive
SMG6 (SMG6 nonsense mediated mRNA decay factor) | 0 | migration z between -2 and 2; enough cells | 0.88 | 5145 | inactive
ZNF549 (zinc finger protein 549) | -1.54 | migration z between -2 and 2; enough cells | 0.48 | 4865 | inactive
SAMD10 (sterile alpha motif domain containing 10) | 0.04 | migration z between -2 and 2; enough cells | 0.9 | 6725 | inactive
CA5B (carbonic anhydrase 5B) | -0.6 | migration z between -2 and 2; enough cells | 0.69 | 4998 | inactive
VPREB3 (V-set pre-B cell surrogate light chain 3) | 1.96 | migration z between -2 and 2; enough cells | 1.39 | 6342 | inactive
PHIP (PHIP subunit of CUL4-Ring ligase complex) | -1.13 | migration z between -2 and 2; enough cells | 0.59 | 5145 | inactive
KRTAP10-4 (keratin associated protein 10-4) | 0.28 | migration z between -2 and 2; enough cells | 0.96 | 5498 | inactive
NIFK (nucleolar protein interacting with the FHA domain of MKI67) | -0.12 | migration z between -2 and 2; enough cells | 0.86 | 5484 | inactive
CHKA (choline kinase alpha) | 0.54 | migration z between -2 and 2; enough cells | 0.91 | 4713 | inactive
PEX11A (peroxisomal biogenesis factor 11 alpha) | 0.42 | migration z between -2 and 2; enough cells | 1 | 4276 | inactive
AKR1C4 (aldo-keto reductase family 1 member C4) | 0.1 | migration z between -2 and 2; enough cells | 0.91 | 7166 | inactive
DDX12P (DEAD/H-box helicase 12, pseudogene) | 0.05 | migration z between -2 and 2; enough cells | 0.82 | 6207 | inactive
CXCL14 (C-X-C motif chemokine ligand 14) | 0.5 | migration z between -2 and 2; enough cells | 1.02 | 6180 | inactive
C16orf46 (chromosome 16 open reading frame 46) | 0.54 | migration z between -2 and 2; enough cells | 1.02 | 5964 | inactive

4 entries from above, set out differently.
{"target gene":"MCPH1 (microcephalin 1)","migration robust z-score":-1.71,"migration class with cell-count check":"migration z between -2 and 2; enough cells","migration relative to mock":0.44,"nuclei per well, duplicate mean":5752,"call":"inactive"}
{"target gene":"LCMT2 (leucine carboxyl methyltransferase 2)","migration robust z-score":0.21,"migration class with cell-count check":"migration z between -2 and 2; enough cells","migration relative to mock":0.84,"nuclei per well, duplicate mean":5422,"call":"inactive"}
{"target gene":"ZSCAN32 (zinc finger and SCAN domain containing 32)","migration robust z-score":0.49,"migration class with cell-count check":"migration z between -2 and 2; enough cells","migration relative to mock":1.01,"nuclei per well, duplicate mean":4499,"call":"inactive"}
{"target gene":"BDH1 (3-hydroxybutyrate dehydrogenase 1)","migration robust z-score":0.18,"migration class with cell-count check":"migration z between -2 and 2; enough cells","migration relative to mock":0.84,"nuclei per well, duplicate mean":6578,"call":"inactive"}
